Some entries share one result that the patent states for a list of compounds.
Tested on: U87 MG human glioblastoma cell line (integrin αvβ3-positive)
Test: Cell uptake study in U87 MG cells
Type: cell-based
Conditions: 37° C., 0.5-2 h
Procedure: U87 MG human glioblastoma cell line (integrin αvβ3-positive) was obtained from the American Type Culture Collection (ATCC, Manassas, Va.) and maintained under standard conditions according to ATCC as following: The U87 MG glioma cells were grown in Gibco's Dulbecco's medium supplemented with 10% fetal bovine serum (FBS), 100 IU/mL penicillin, and 100 μg/mL streptomycin (Invitrogen Co, Carlsbad, Calif.), at 37° C. in humidified atmosphere containing 5% CO2. The U87 MG glioma cells were grown in culture until sufficient cells were available.
The cell uptake study was performed as described in the literature with some modifications. […] The tumor cells were then washed three times with chilled PBS and harvested by 0.1 N NaOH solution containing 0.5% sodium dodecyl sulfate (SDS). The cell suspensions were collected and measured in the gamma counter.

## N=C(N)NCCC[C@@H]1NC(=O)[C@H](CCCCNC(=O)CN2CCN(CC(=O)O)CCN(CC(=O)O)CCN(CC(=O)O)CC2)NC(=O)[C@@H](Cc2ccc(O)cc2)NC(=O)[C@H](CC(=O)O)NC(=O)CNC1=O [^64Cu-DOTA-RGD, metal not drawn]
  activity internalized in U87 MG tumor cells: 0.1˜0.4%

— patent publication US9403875B2, “Cage-like bifunctional chelators, copper-64 radiopharmaceuticals and PET imaging using the same” (UNIVERSITY OF SOUTHERN CALIFORNIA, priority 2009, dated 2016)
